Article PMC8545785
Results are given in words; binding and its absence hold for the method and conditions named. In cells and extracts the contact can be indirect. Some results given as binding are weak or reduced against the parent protein; the word gives no strength. For some of these results: Where a sequence is shown, tags or fusion partners need not be part of it. One block for each binder: values may come before it.

By UniProt entry, the sequences of proteins in these tests, tags left out.
UniProt P42771: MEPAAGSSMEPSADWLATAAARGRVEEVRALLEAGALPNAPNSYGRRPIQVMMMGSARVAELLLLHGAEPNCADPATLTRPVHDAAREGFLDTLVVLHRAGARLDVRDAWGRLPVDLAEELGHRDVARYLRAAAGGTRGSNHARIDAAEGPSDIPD

How the values were obtained:
[1] = target: Flag-p16 (human), full length, from GFP-labeled overexpression adenovirus (human) (UniProt P42771); assay: co-IP; 293T cells with Flag-p16 adenovirus and His-tagged occludin plasmids; cell extracts precipitated with anti-Flag antibody, blots with anti-His or anti-Flag
[2] = target: T1, p16^INK4a (mouse, endogenous) (mouse (endogenous in ileum)) (UniProt P51480); assay: proximity ligation; Duolink PLA on paraffin sections of ileum from Bmi-1-/- mice with antibodies against p16 and occludin
T1 sequence: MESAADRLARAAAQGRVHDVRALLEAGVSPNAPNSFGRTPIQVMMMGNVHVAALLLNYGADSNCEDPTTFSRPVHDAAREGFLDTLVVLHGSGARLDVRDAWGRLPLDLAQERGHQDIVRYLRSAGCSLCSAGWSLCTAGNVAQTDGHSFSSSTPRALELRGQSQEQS

[3] = target: T1, p16^INK4a (mouse, endogenous) (mouse (endogenous in ileum)); assay: co-IP; total protein from ileum / intestinal epithelium of WT and Bmi-1-/- mice; Pierce Co-IP kit; anti-p16 or anti-occludin antibody overnight, anti-IgG as control; Western blots for p16 and occludin

binding [1]: no binding
B1: His-tagged human occludin 266–522–truncated fragment (domain or fragment, UniProt Q16625 266-522)
chain: KTRRKMDRYDKSNILWDKEHIYDEQPPNVEEWVKNVSAGTQDVPSPPSDYVERVDSPMAYSSNGKVNDKRFYPESSYKSTPVPEVVQELPLTSPVDDFRQPRYSSGGNFETPSKRAPAKGRAGRSKRTEQDHYETDYTTGGESCDELEEDWIREYPPITSDQQRQLYKRNFDTGLQEYKSLQSELDEINKELSRLDKELDDYREESEEYMAAADEYNRLKQVKGSADYKSKKNHCKQLKSKLSHIKKMVGDYDRQKT

binding [1]: binds
B2: His-tagged full-length human occludin (protein, UniProt Q16625 1-522)
chain: MSSRPLESPPPYRPDEFKPNHYAPSNDIYGGEMHVRPMLSQPAYSFYPEDEILHFYKWTSPPGVIRILSMLIIVMCIAIFACVASTLAWDRGYGTSLLGGSVGYPYGGSGFGSYGSGYGYGYGYGYGYGGYTDPRAAKGFMLAMAAFCFIAALVIFVTSVIRSEMSRTRRYYLSVIIVSAILGIMVFIATIVYIMGVNPTAQSSGSLYGSQIYALCNQFYTPAATGLYVDQYLYHYCVVDPQEAIAIVLGFMIIVAFALIIFFAVKTRRKMDRYDKSNILWDKEHIYDEQPPNVEEWVKNVSAGTQDVPSPPSDYVERVDSPMAYSSNGKVNDKRFYPESSYKSTPVPEVVQELPLTSPVDDFRQPRYSSGGNFETPSKRAPAKGRAGRSKRTEQDHYETDYTTGGESCDELEEDWIREYPPITSDQQRQLYKRNFDTGLQEYKSLQSELDEINKELSRLDKELDDYREESEEYMAAADEYNRLKQVKGSADYKSKKNHCKQLKSKLSHIKKMVGDYDRQKT

binding [2]: binds
binding [3]: binds
B3: occludin (mouse, endogenous) (protein, UniProt Q61146 1-521)
chain: MSVRPFESPPPYRPDEFKPNHYAPSNDMYGGEMHVRPMLSQPAYSFYPEDEILHFYKWTSPPGVIRILSMLIIVMCIAIFACVASTLAWDRGYGTGLFGGSLNYPYSGFGYGGGYGGGYGGYGYGYGGYTDPRAAKGFLLAMAAFCFIASLVIFVTSVIRSGMSRTRRYYLIVIIVSAILGIMVFIATIVYIMGVNPTAQASGSMYGSQIYMICNQFYTPGGTGLYVDQYLYHYCVVDPQEAIAIVLGFMIIVAFALIIFFAVKTRRKMDRYDKSNILWDKEHIYDEQPPNVEEWVKNVSAGTQDMPPPPSDYAERVDSPMAYSSNGKVNGKRSYPESFYKSTPLVPEVAQEIPLTLSVDDFRQPRYSSNGNLETPSKRAPTKGKAGKGKRTDPDHYETDYTTGGESCEELEEDWVREYPPITSDQQRQLYKRNFDAGLQEYKSLQAELDDVNKELSRLDKELDDYREESEEYMAAADEYNRLKQVKGSADYKSKRNYCKQLKSKLSHIKRMVGDYDRRKP
